In article PMC11387718:
No constants are given. Whether binding was seen depends on the method and setting. In cells and extracts the contact can be indirect. Some binding calls cover weakened binding; strength is not graded here.

The chains behind the UniProt entries cited, without tags or fusion partners. Residues count along the entry.
UniProt O60678: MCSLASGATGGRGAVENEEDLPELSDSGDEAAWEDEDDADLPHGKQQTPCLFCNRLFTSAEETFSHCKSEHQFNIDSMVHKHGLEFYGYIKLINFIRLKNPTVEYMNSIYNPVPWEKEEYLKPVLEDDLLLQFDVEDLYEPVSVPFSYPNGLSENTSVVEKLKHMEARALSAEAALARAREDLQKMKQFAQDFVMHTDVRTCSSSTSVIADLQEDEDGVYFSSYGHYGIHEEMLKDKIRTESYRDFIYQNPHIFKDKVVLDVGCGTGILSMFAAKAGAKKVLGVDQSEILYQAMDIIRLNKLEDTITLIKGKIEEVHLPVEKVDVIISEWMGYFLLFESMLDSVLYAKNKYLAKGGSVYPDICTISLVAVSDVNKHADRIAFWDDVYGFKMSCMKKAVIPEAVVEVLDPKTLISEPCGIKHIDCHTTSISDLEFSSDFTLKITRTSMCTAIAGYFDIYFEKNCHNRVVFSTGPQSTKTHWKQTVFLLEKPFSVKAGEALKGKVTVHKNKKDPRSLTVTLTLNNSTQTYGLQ
UniProt P63038, residues 27-573: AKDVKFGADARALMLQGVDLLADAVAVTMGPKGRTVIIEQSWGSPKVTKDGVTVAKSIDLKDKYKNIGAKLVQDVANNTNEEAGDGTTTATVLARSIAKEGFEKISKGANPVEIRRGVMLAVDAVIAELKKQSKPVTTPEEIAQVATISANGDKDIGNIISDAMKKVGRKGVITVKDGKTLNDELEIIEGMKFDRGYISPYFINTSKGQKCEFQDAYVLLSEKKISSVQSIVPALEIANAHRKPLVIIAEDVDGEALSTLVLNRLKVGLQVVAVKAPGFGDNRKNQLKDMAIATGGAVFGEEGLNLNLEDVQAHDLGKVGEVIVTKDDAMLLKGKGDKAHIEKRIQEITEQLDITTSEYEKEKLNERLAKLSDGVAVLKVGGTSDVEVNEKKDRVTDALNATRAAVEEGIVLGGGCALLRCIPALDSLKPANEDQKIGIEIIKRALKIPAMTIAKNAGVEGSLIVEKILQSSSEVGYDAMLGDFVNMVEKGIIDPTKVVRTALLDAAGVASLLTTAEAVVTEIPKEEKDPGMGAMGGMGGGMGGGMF
UniProt Q922H1: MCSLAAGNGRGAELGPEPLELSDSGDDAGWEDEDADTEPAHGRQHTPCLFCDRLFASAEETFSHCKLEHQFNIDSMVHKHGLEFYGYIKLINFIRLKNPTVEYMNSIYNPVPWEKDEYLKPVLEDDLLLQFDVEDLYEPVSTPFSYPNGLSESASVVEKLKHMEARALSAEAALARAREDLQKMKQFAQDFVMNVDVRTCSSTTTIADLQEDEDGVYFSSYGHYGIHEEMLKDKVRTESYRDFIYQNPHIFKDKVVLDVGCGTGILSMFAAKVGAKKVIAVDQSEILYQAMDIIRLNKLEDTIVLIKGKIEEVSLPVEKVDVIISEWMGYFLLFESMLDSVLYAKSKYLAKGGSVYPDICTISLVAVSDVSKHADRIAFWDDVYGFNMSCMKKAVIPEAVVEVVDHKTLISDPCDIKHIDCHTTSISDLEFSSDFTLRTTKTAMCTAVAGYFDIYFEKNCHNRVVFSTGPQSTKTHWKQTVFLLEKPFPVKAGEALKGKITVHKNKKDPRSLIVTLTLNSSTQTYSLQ
UniProt P10809, residues 27-573: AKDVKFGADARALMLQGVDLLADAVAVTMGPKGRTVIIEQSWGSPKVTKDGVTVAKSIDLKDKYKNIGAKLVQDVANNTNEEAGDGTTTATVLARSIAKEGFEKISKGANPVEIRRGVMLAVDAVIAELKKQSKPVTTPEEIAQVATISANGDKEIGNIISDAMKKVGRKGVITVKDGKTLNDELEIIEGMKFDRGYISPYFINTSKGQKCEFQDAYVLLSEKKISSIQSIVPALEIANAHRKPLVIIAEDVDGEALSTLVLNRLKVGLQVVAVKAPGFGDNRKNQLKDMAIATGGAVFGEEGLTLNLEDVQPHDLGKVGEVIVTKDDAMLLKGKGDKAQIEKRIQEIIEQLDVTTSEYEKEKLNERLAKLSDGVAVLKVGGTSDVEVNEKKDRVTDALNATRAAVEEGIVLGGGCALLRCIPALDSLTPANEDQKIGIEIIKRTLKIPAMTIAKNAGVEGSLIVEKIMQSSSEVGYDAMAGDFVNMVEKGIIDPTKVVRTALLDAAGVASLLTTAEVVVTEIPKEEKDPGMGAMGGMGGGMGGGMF

Assays:
[1] = molecular target: protein arginine methyltransferase 3 (PRMT3), human, in PLC-8024 cells (human (endogenous in PLC-8024)) (UniProt O60678); assay: co-IP; reciprocal co-IP of endogenous PRMT3 and HSP60 from PLC-8024 and Hepa1-6 lysates (2 mg lysate, antibody overnight at 4 °C, protein A/G agarose, 3 washes), western blot
[2] = molecular target: HSP60 (encoded by the HSPD1 gene), mouse, in Hepa1-6 cells (mouse (endogenous in Hepa1-6)) (UniProt P63038); assay: cross-linking; cells (PLC-8024, Hepa1-6; control, Prmt3-KO or SGC707-treated) incubated with 1 mM BS3 for 15 min at room temperature, quenched with Tris-HCl pH 7.5, lysed, western blot for HSP60; multimers are bands over 180 KD, monomers at 60 KD
[3] = molecular target: protein arginine methyltransferase 3 (PRMT3), mouse, in Hepa1-6 cells (mouse (endogenous in Hepa1-6)) (UniProt Q922H1); assay: co-IP; reciprocal co-IP of endogenous PRMT3 and HSP60 from PLC-8024 and Hepa1-6 lysates (2 mg lysate, antibody overnight at 4 °C, protein A/G agarose, 3 washes), western blot

| binding [1] | binding [2] | binding [3] | Substance |
| --- | --- | --- | --- |
| binds |  |  | HSP60 (encoded by the HSPD1 gene), human, in PLC-8024 cells (from UniProt P10809 27-573) |
|  | binds | binds | HSP60 (encoded by the HSPD1 gene), mouse, in Hepa1-6 cells (from UniProt P63038 27-573) |
